In this assay the test system is Jurkat. Description: Cytotoxicity against human Jurkat cells after 48 hrs by MTT assay. The assay is classed as functional, cell-based. The essentials: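 Jurkat and Colo 320DM grown in RPMI 1640 with 10% FBS and 1% ampicillin; A549 in 90% DMEM with 10% FBS. Cells seeded at line-dependent densities, held 24 h compound-free, then exposed 48 h to six 2-fold dilutions (top […]). MTT (10 mg/ml PBS solution) added for 4 h at 37 °C; DMSO-solubilized formazan read at 570 nm. Three runs in triplicate.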

The structures appear in SMILES notation.

Take `CC/C(=C(\c1ccccc1)c1ccc(OCCN(C)C)cc1)c1ccccc1` [TAMOXIFEN]: it took 8.3 µM to reach half-maximal inhibition (IC50).

Source of the values: ChEMBL document CHEMBL3108680, “Diversity-oriented synthesis of α-aminophosphonates: a new class of potential anticancer agents” (Eur J Med Chem, 2013).
